Our source for the binding values is US20140234339A1.

Results are given in words; binding and its absence hold for the method and conditions named. Some results given as binding are weak or reduced against the parent protein; the word gives no strength.

The experiment concerns the target T1, IsaA (immunodominant structure IsaA of Staphylococcus aureus) (Staphylococcus aureus) (UniProt P99160).
T1 sequence (looked up): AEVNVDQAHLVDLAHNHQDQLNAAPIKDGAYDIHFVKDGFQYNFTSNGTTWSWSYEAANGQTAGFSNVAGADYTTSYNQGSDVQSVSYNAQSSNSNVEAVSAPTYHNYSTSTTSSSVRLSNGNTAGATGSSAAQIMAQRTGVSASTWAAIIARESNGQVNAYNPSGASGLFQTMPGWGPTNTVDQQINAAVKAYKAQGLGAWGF
Kind of experiment: bacterial cell ELISA: plates coated with whole S. aureus cells (5x10^7 per well), antibody diluted 1:2000, HRP-linked secondary antibody, OD 450 nm; IsaA on the cells, with the deletion strain MA12isaA- as control. On the technique in general: In an ELISA, binding on a coated surface is turned into a signal by an enzyme label.

B1: antibody UK66-2 (antibody, V domains shown)
VH: EVQLLESGGGLVQPGGSLRLSCAASGFTFSNYYMSWVRQAPGKGLEWVSDINGNGGSTYYPDTVKGRFTISRDNSKNTLYLQMNSLRAEDTAVYYCVRRGGYYALDYWGQGTTVTVSS
VL: DVVMTQTPLSLSVTPGQPASISCRSSQSLVHINGNTYLHWYLQKPGQSPQLLIYRVSNRFSGVPDRFSGSGSGTDFTLKISRVEAEDVGVYYCSQSTHVPWTFGGGTKLELKR
As to B1, the binding entry is listed as “binds”.
